The campaign covered roughly 31,000 sequences. About 1,400 (4.5%) were called active.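 How the source made its calls: active means median seed-adjusted z-score above 1 or below -1; inactive means the rest.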 The list shows a part of the results.
Test: Novel Modifiers of Survival Motor Neuron (SMN) Protein: Gene Identification via Genome-wide siRNA Screen;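 further: luminescence tracks full-length SMN protein made from the SMN2 reporter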
Details: HEK293T SMN2-luciferase reporter, siRNA knockdown, 72 h; actives lie on both sides
How it was run: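 siRNA screen, 10418 genes ×3 siRNAs; 1 pmol/well, lipid reverse transfection into HEK293T SMN2-luc reporter line. 72 h, 37 °C, 5% CO2; ONE-Glo readout. Data: neg-ctrl normalized, log10, MAD; hit = MAD >1.0 or < -1.0.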

Sequence	median seed-adjusted z-score
CAGUGAAGAUUAGACCGAATT against SYNJ2	inactive: 0.0202
CCAUCGACUUCUUCGCCUUTT against WFS1	inactive: 0.696
GCCCAAGCAGAUUACCAUATT against ARHGAP17	inactive: -0.336
ACUCCACGCUGAUUCAGCATT against ZNF205	inactive: -0.468
GGUCAGCAGCUGUAUGAGATT against GCK	inactive: -0.286
CAACAUCACAAAUCCAGUUTT against B3GALNT2	inactive: -0.227
CCCAAGAACCAUACCGUAATT against MTMR12	inactive: 0.419
GAAUAAACAUCUCCGUGAATT against ANAPC11	inactive: -0.581
GGGACUACCUUACAGUCAATT against PPP2R2C	inactive: -0.87
CUGAGAGACUUGGAAUAUATT against TRIM26	inactive: 0
GGAUCUUUCAUAUUGUGGATT against MRPS28	inactive: -0.022
GCACCCGGUUUAUCAGUAATT against CCNF	inactive: -0.435
GCAUAUUACCACUCCGUUUTT against RFX6	inactive: 0.119
AGAGAUUAAGAGUAACCAATT against SLC7A3	inactive: -0.537
GCCUUACAGUUAGAGUAUUTT against BRAP	inactive: 0.267
GGUCAGAGAGUGGUAUUCATT against GANC	inactive: 0.799
CGCCUCCACCUGAAAUUCATT against BPIL1	inactive: 0.261
GCAGUACAAGUAUCCACAATT against NPY2R	inactive: 0.121
CUCUGAACCAAAUCGUUUATT against DPP8	inactive: -0.0209
GAUUAAGGGUGCAACUAAATT against EIF2AK1	inactive: -0.546
GGAAAGGACCUCUACCGUUTT against PRDM1	inactive: -0.16
GUGAUAGUAUGGAUGCUCATT against P2RY14	inactive: -0.0536

Sequence	median seed-adjusted z-score
CAAUCUGAGUGAGAGACAATT against HOXB9	inactive: 0.717
GAAAGAGGCAGGGACCUAATT against CCR10	inactive: -0.129
CGAGCUACAGGAACAUCUUTT against LSS	inactive: -0.302
AUAGUUGACUAUUCUGAAATT against CCL18	inactive: 0.169
AGGCAUUUUUGAAUGAGAATT against DDC	inactive: 0.395
GCACGGAAUUUGAACAGUATT against SOX17	inactive: -0.46
GGCCUUUAGCAAUAGUUCATT against ZNF583	inactive: -0.225
CCUUCUAAUUCGCAAGGUATT against REL	inactive: -0.358
CCUCGUAUCAAAACAUUAATT against BIRC2	inactive: 0.336
GGCUCUUAAUAUUCGAAUATT against GPR22	inactive: 0.705
GACUUACUCGAGAACAAGATT against SF1	inactive: 0.795
GAGCUGCAUGAAUACGUUUTT against EXT1	inactive: 0.489
UGACUCUACUCAUUAGAUUTT against MAS1L	inactive: 0.0585
GGAUGACAUCUCAGAAUCATT against PNCK	inactive: 0
AGACCUGCCUAAUGGUUCUTT against CAV2	inactive: -0.00895
GGAUCAUGCUAAAAGGAGATT against SNRPE	active: -2.77
AACCAUAGGCUUCAAUGUATT against ARF5	inactive: -0.507
CGACGACAGCUACUGGUUUTT against NUDT1	inactive: -0.175
CGAGGACACCUCUUACGAUTT against NRF1	inactive: 0.608
GAUUGCACGCUAUAUUAAATT against TEAD3	inactive: 0
ACAAGAACCCUGACAAUAATT against DNAJB8	active: -1.09
GGAUGCCUGGUUCCACUUUTT against TRPV3	inactive: -0.228

Sequence	median seed-adjusted z-score
GGCUGAAAAUGACGACUAUTT against ZDHHC7	inactive: 0.0962
CCGCAGACUGAGUUCCUCATT against TRIM72	inactive: -0.0122
AAGUCAUUAACACACUUUATT against DEAF1	inactive: 0.0416
GAGAGCAAGUUCUACAAGATT against CSNK1E	inactive: -0.796
AGUUAAUCCUCUCAUUUCUTT against GHRH	inactive: -0.16
GGACCUCCGUUGACAGAUUTT against PHF12	inactive: 0.784
GGACCUCAGCGAUAAUGCATT against RTN4R	inactive: -0.536
GGUGAAUCCUGUGACACUATT against MYO19	inactive: 0.0987
CCGUAUUGGUCAUCAUUGATT against PSMD7	inactive: 0.0973
GCUAAUCACUAGAUUAGAATT against LDB2	inactive: -0.0847
UGAAAAUUGUAGCCUGUGATT against GTF2A2	inactive: 0.0457
GGUGCUUCUAGGUUACCCATT against NUP210	inactive: 0.0904
GACGACUCGUCAUAAGUUUTT against PLB1	inactive: -0.118
GGACAAUAUGUGACCAGAATT against CD163L1	inactive: 0.353
CGGUAUGCCUGUGACGACATT against FCER2	active: -1.75
CCACCUCUCUCGAUCCCUATT against RBM4	inactive: 0.0148
GAUUUGAUCAGGAGGAUAATT against ANP32E	inactive: -0.0648
UGUCCAAUCUAGAUCCCAATT against SLC7A5	inactive: 0.00397
ACCAUAGCCUCUCACCCUATT against RASA4	active: -1.11
ACUGGGCUCUCUUUACCUATT against DBNL	inactive: 0.398
CAUUUGUGGGAGAAGAUAATT against STK17B	inactive: -0.971
GAAUCGCAGUUAUCGCAGATT against CANT1	inactive: 0

Sequence	median seed-adjusted z-score
GCAAUGGAGUGAUCGUACATT against LY75	inactive: -0.0919
GGAUGAAAACUUUAAGUCUTT against ROR1	inactive: -0.0044
UGUUCAGCCUUGACUCAAATT against RHOU	active: -1.44
CCACUAUGCUUUACGCCCATT against ARSI	inactive: 0
GGCAAGGUAUUUAAUCAGATT against ZNF28	inactive: 0.814
GAAGGACCCUUACACUCUUTT against TCF4	inactive: 0.107
CGCUACUACUACGACAAGATT against FEV	inactive: 0.174
GGGAAACUGUACAUCGUGATT against TSSK6	inactive: -0.408
CUACCUAACUAAGAAGUUUTT against CNDP2	inactive: 0.43
GGUUAUGCCUUGCUGCAUUTT against ATRN	inactive: -0.28
GUGUGGUGUUUAGUGGAUATT against TNFRSF14	inactive: 0
CCGCUGUUAUCAUUACCAUTT against KIR2DL5B	active: 1.72
GCAAGGCUAUCUUCUUCAATT against KCNA7	inactive: 0.394
CGAACAAGACCGUCCAUCUTT against SIGLEC9	inactive: 0
GGAUUAACCUGGACAACAATT against PRELP	inactive: -0.0579
GGUUUAUGCUGGAUUGAAUTT against RRH	inactive: -0.0112
AGUUUAAUCUCAAGGGCAATT against ZNF710	inactive: 0
GCUUCUAUAAGUACUAGUATT against MTO1	inactive: -0.0252
AGAACAAAGUGGUGGUGAUTT against DHRS7C	inactive: -0.398
GGUGCUUUCCCAAGACUGUTT against MAP3K10	inactive: 0.201
GCUUCGUCAGGUGUAAGAATT against WNT5B	inactive: 0.72
CUAUGAAAGAGGUUCUUUUTT against MDM2	inactive: 0.258

For reference, part of the list above.
Sequence	median seed-adjusted z-score
GAUUUGAUCAGGAGGAUAATT against ANP32E	inactive: -0.0648
UGUCCAAUCUAGAUCCCAATT against SLC7A5	inactive: 0.00397
ACCAUAGCCUCUCACCCUATT against RASA4	active: -1.11
ACUGGGCUCUCUUUACCUATT against DBNL	inactive: 0.398
CAUUUGUGGGAGAAGAUAATT against STK17B	inactive: -0.971
GAAUCGCAGUUAUCGCAGATT against CANT1	inactive: 0
GCAAUGGAGUGAUCGUACATT against LY75	inactive: -0.0919
GGAUGAAAACUUUAAGUCUTT against ROR1	inactive: -0.0044
UGUUCAGCCUUGACUCAAATT against RHOU	active: -1.44
CCACUAUGCUUUACGCCCATT against ARSI	inactive: 0
GGCAAGGUAUUUAAUCAGATT against ZNF28	inactive: 0.814
GAAGGACCCUUACACUCUUTT against TCF4	inactive: 0.107
CGCUACUACUACGACAAGATT against FEV	inactive: 0.174
GGGAAACUGUACAUCGUGATT against TSSK6	inactive: -0.408
CUACCUAACUAAGAAGUUUTT against CNDP2	inactive: 0.43
GGUUAUGCCUUGCUGCAUUTT against ATRN	inactive: -0.28
GUGUGGUGUUUAGUGGAUATT against TNFRSF14	inactive: 0
CCGCUGUUAUCAUUACCAUTT against KIR2DL5B	active: 1.72
GCAAGGCUAUCUUCUUCAATT against KCNA7	inactive: 0.394
CGAACAAGACCGUCCAUCUTT against SIGLEC9	inactive: 0
GGAUUAACCUGGACAACAATT against PRELP	inactive: -0.0579
GGUUUAUGCUGGAUUGAAUTT against RRH	inactive: -0.0112
AGUUUAAUCUCAAGGGCAATT against ZNF710	inactive: 0
GCUUCUAUAAGUACUAGUATT against MTO1	inactive: -0.0252
AGAACAAAGUGGUGGUGAUTT against DHRS7C	inactive: -0.398

More records follow:

Sequence	median seed-adjusted z-score
GAGAUCGACUUGGUGCUGATT against CHRNB2	inactive: -0.649
CUGGAAGAGCUAAACCUGATT against TLR9	inactive: -0.0834
GGCAUCCAGUUGUUCGAGATT against RAB35	inactive: 0.317
GCAACGUGUUGAUGAUGCATT against ADAD1	inactive: -0.0795
CAUUCGGGAUCAUGAGUUUTT against PTPRO	inactive: 0.387
CAAGAAAAGCUACCACGCATT against PACSIN3	inactive: -0.0145
CGGCGUAAAUCCUAGAGUATT against DMRTA1	inactive: -0.162
UGGUGACACUGUACCCAUATT against ABI3	inactive: 0.114
GCCCUGGACUUAGACCAGUTT against OSGIN1	inactive: -0.131
GGGCUAUGAUAAAUGGUCUTT against SHROOM3	inactive: 0.779
CGUCAGAGUUCAUAUCUUATT against ZNF234	inactive: 0.0667
CACGAAAGUUUAUAGCAAATT against CHRNA9	inactive: -0.454
CGACUCCGGAGGAUUGAAATT against GSX2	inactive: -0.621
GGAGAGUGGAUGACUCAGATT against ZNF691	inactive: 0.28
GGACGACACGUUCUACCUGTT against ENDOG	inactive: -0.336
CAGCCUCAAUUUUUGCCUUTT against MAL2	inactive: -0.604
GCAAAGUAACUGCUAUAAATT against BET1	inactive: 0.394
GCAAGGAUGUCGCACUGCUTT against CCR10	inactive: -0.129
CGACAGAUUUUUCACUAUUTT against CDH11	inactive: -0.457
CACUUAAACUGCAGCAGAATT against PLDN	inactive: -0.164

Source: PubChem BioAssay AID1347426 (Functional Genomics Laboratory (NCATS/FGL), 2020)
